# Measurements from PubChem BioAssay AID540256 (National Center for Advancing Translational Sciences (NCATS), 2011).
# Screen size: about 300,000 compounds; about 3,700 (1.2%) were called active. The shares of active, inactive and inconclusive entries below differ from those in the screen. Calls come from the whole dose curve; tested in HEK293 cells. Where the call is inconclusive, the potency comes from a doubtful curve fit.
# Test: qHTS for Inhibitors of binding or entry into cells for Lassa Virus; note: nearly all actives have a fitted effect of over 50% in size
# Conditions: Lassa virus pseudotype entry inhibition, cell reporter; series mostly up to 37.9 µM
# Potency is the fitted concentration of half-maximal effect.
row,SMILES,Potency
1,CCOc1ccccc1N1CCN(C(=O)c2ccncc2)CC1,inactive
2,Cc1[nH]n(-c2nc(-c3ccc(Cl)cc3)cs2)c(=O)c1N=Nc1ccc(O)cc1,active: 11.2 µM
3,Cc1cccc(NC(=O)C2CCC(CNS(=O)(=O)c3ccc4c(c3)CCCC(=O)N4)CC2)c1C (stereo not given),inactive
4,Oc1ccccc1-c1csc(-c2ccccc2)n1,inactive
5,C=CCOc1nc2c(c(=O)n(C)c(=O)n2C)n1Cc1ccccc1Cl,"inconclusive: 1.03 µM [inhibitor, full curve, poor fit]"
6,Cc1cc(C)cc(NC(=O)Nc2ccc(-n3ccc(C(F)(F)F)n3)cc2)c1,"inconclusive: 12.6 µM [inhibitor, partial curve]"
7,O=C(Nc1ccccc1)c1ccc2nc(-c3ccco3)c(-c3ccco3)nc2c1,"inconclusive: 16.4 µM [inhibitor, single point]"
8,CC(=O)Nc1ccc(C(=O)NNS(=O)(=O)c2ccc(C)cc2)cc1,inactive
9,O=C(N/N=C/c1cccs1)c1cccnc1,inactive
10,Cc1ccc(NC(=O)c2ccc3c(c2)CCN3S(C)(=O)=O)cc1C,"inconclusive: 20 µM [inhibitor, single point]"
11,CC1CCc2c(C(=O)NCCN3CCOCC3)csc2C1 (stereo not given),"inconclusive: 0.0046 µM [activator, full curve, poor fit]"
12,O=P(Cc1ccccc1)(Cc1ccccc1)c1ccccc1,inactive
13,CCOc1ccc(CC(=O)NNC(=S)Nc2ccc(OC)c(OC)c2)cc1,"inconclusive: 11.2 µM [inhibitor, partial curve, poor fit]"
14,CC(=O)N1CCc2c(sc3c2c(=O)n(-c2ccccc2Cl)c(=O)n3C)C1,"inconclusive: 0.891 µM [activator, partial curve, poor fit]"
15,Cc1c(Cl)cccc1NC(=O)CN1C(=O)c2ccccc2Sc2ncccc21,inactive
16,COc1ccc(NC(=O)c2ccco2)c([N+](=O)[O-])c1,"inconclusive: 2.24 µM [activator, partial curve, poor fit]"
17,C/C(=N\Nc1nncc2ccccc12)c1cccc(OC(F)F)c1,active: 2.82 µM
18,CCc1ccccc1Nc1nn2c(=O)c3ccc(C(=O)NCCc4ccccc4)cc3nc2s1,"inconclusive: 6.31 µM [inhibitor, partial curve, poor fit]"
19,CCOC(=O)c1ccc(NC(=O)C2C3CCCCC32)cc1 (stereo not given),"inconclusive: 5.62 µM [activator, single point]"
20,CC1(C(=O)Nc2nc3ccc(S(C)(=O)=O)cc3s2)CC1(Cl)Cl (stereo not given),"inconclusive: 2.51 µM [activator, full curve, poor fit]"

# From entry 13 to 14, as listed above:
row,SMILES,Potency
13,CCOc1ccc(CC(=O)NNC(=S)Nc2ccc(OC)c(OC)c2)cc1,"inconclusive: 11.2 µM [inhibitor, partial curve, poor fit]"
14,CC(=O)N1CCc2c(sc3c2c(=O)n(-c2ccccc2Cl)c(=O)n3C)C1,"inconclusive: 0.891 µM [activator, partial curve, poor fit]"
